These are literature values, as cited in patent publication US7179597B2, “Genetic diagnosis for QT prolongation related adverse drug reactions” (Georgetown University, priority 2000, dated 2007).

Like-named read-outs stand apart in the source and are kept apart here.

One series has as its system CYP3A. To be noted: Table 3; cited from earlier work.
For series [1] the following is noted: cited from earlier work.

As for `CCCCc1oc2ccccc2c1C(=O)c1cc(I)c(OCCN(CC)CC)c(I)c1` [Amiodarone], in the series with CYP3A, the “Interactions: cytochrome P-450 isoform 3A, substrate or inhibitor” value is “Inhibitor”. The QT entry in series [1] (Table 2, drug labeling) was “Yes”; in series [1] (Table 3), “Yes”.
